Data on three sequences can be found in article PMC7404307.

The test system of data set [1] is skeletal troponin I (sTnI). Briefly: AlphaLisa sandwich. The note with it: 5 nM sTnI, diluted human plasma, L-DNA (all L-2'-deoxyribose), AlphaLisa: selection buffer (PBS, 1 mg/mL BSA, 0.01 ug/mL poly(dI-dC), 5 mM EDTA) or diluted human plasma, label: 5' biotin, synthetic backbone. (In general: In Alpha technology, singlet oxygen from a donor bead excites a nearby acceptor bead.)

Data set [2] has as its target cardiac troponin I (cTnI) (UniProt P19429). The data set is described as follows: AlphaLisa sandwich. The note with it: 5 nM cTnI, diluted human plasma, L-DNA (all L-2'-deoxyribose), AlphaLisa: selection buffer (PBS, 1 mg/mL BSA, 0.01 ug/mL poly(dI-dC), 5 mM EDTA) or diluted human plasma, label: 5' biotin, synthetic backbone.

The exact form of at least one protein or probe is not confirmed. For part of these data: No signal at the amounts used counts as a negative. For part of these data: At least one verdict was read from the data and is not stated in words by the source.

“AGTCTCCGCTGTCCTCCCGATGCACTTGACGTATGTCTCACTTTCTTTTCATTGACATGGGATGACGCCGTGACTG [B10 spiegelmer]”: the binding result in data set [1] (with A6 or C6) was “no binding”; in data set [2] (with A6 or C6), “binds”.

Consider “CAGTGAGTGATGGTGAGGGCTTAGTTCGCCGCTCATGCCGAATCTCCTGTATAAATACCCACACTGTCCATACACG [A6 spiegelmer]”, for which the binding result in data set [1] (with B10) is recorded as “no binding”; in data set [2] (with B10, signal about 5x), “binds”.

Regarding “CAGTGAGTGATGGTGAGGGTGAATCGGTGTCGACTATTAAATTAAGTTGTGGTTGTTCCCACACTGTCCATACACG [C6 spiegelmer]”, the binding result in data set [1] (with B10) is on record as “no binding”; in data set [2] (with B10, signal about 5x), “binds”.
